Assay results taken from PMC3641059.
No constants are given. Whether binding was seen depends on the method and setting. Some results given as binding are weak or reduced against the parent protein; the word gives no strength.

Legend:
[1] = molecular target: T1, Ste5 (S. cerevisiae) (UniProt P32917); assay: PICT (co-translocation of GFP-tagged prey with FRB-tagged bait to an FKBP-tagged anchor, live-cell fluorescence imaging); living S. cerevisiae (tor1-1, FPR1 deleted), anchor Pil1-RFP-FKBP, bait-FRB, prey-GFP; cells grown in SD medium at 25°C, vehicle (DMSO) or 10 µM rapamycin, imaged after 15 min; scored positive when >90% of membrane patches in the GFP channel colocalised with the anchor; also done in ste5Δ and ste50Δ cells
T1 sequence: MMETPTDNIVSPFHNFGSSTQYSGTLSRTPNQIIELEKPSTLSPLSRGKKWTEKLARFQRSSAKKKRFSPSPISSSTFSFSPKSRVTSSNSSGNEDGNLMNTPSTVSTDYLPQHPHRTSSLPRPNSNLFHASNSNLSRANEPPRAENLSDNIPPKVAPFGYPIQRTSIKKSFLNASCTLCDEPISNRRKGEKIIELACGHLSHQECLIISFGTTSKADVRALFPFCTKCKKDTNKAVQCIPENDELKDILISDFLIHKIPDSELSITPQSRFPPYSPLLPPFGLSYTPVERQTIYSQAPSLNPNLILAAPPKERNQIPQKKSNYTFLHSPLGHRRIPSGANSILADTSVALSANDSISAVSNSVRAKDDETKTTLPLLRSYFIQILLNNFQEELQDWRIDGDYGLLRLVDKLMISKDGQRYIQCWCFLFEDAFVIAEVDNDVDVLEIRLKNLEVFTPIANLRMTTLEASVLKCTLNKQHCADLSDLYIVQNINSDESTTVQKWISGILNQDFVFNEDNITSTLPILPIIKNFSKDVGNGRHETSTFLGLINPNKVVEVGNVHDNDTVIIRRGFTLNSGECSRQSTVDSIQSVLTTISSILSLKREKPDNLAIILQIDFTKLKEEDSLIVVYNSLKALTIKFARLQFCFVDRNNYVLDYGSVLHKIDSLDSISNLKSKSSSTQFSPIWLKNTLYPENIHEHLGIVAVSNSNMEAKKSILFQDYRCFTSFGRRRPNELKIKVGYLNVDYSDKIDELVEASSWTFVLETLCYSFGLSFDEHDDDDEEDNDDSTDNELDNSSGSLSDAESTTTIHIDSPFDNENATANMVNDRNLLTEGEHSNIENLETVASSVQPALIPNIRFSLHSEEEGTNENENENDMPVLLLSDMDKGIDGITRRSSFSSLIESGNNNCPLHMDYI

[2] = molecular target: T2, Ste50 (S. cerevisiae) (UniProt P25344); assay: as above
T2 sequence: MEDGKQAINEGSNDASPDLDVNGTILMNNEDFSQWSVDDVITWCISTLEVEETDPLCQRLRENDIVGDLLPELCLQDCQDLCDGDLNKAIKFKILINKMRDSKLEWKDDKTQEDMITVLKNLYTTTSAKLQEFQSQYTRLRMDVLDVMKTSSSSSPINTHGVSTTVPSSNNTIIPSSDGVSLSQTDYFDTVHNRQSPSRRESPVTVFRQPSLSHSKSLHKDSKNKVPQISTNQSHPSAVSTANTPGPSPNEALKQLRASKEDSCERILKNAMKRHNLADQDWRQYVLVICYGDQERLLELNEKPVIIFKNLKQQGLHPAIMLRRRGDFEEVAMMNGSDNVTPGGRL

B1: Ste11 (protein, UniProt P23561 1-717)
chain: MEQTQTAEGTDLLIGDEKTNDLPFVQLFLEEIGCTQYLDSFIQCNLVTEEEIKYLDKDILIALGVNKIGDRLKILRKSKSFQRDKRIEQVNRLKNLMEKVSSLSTATLSMNSELIPEKHCVIFILNDGSAKKVNVNGCFNADSIKKRLIRRLPHELLATNSNGEVTKMVQDYDVFVLDYTKNVLHLLYDVELVTICHANDRVEKNRLIFVSKDQTPSDKAISTSKKLYLRTLSALSQVGPSSSNLLAQNKGISHNNAEGKLRIDNTEKDRIRQIFNQRPPSEFISTNLAGYFPHTDMKRLQKTMRESFRHSARLSIAQRRPLSAESNNIGDILLKHSNAVDMALLQGLDQTRLSSKLDTTKIPKLAHKRPEDNDAISNQLELLSVESGEEEDHDFFGEDSDIVSLPTKIATPKNWLKGACIGSGSFGSVYLGMNAHTGELMAVKQVEIKNNNIGVPTDNNKQANSDENNEQEEQQEKIEDVGAVSHPKTNQNIHRKMVDALQHEMNLLKELHHENIVTYYGASQEGGNLNIFLEYVPGGSVSSMLNNYGPFEESLITNFTRQILIGVAYLHKKNIIHRDIKGANILIDIKGCVKITDFGISKKLSPLNKKQNKRASLQGSVFWMSPEVVKQTATTAKADIWSTGCVVIEMFTGKHPFPDFSQMQAIFKIGTNTTPEIPSWATSEGKNFLRKAFELDYQYRPSALELLQHPWLDAHII
[1]
  binding: binds
[2]
  binding: binds
